Measurements from the supplement of paper PMC10849652.
The other results are listed elsewhere or left out.

The chains behind the UniProt entries cited, without tags or fusion partners. Where a name states a change or a piece, a line headed by the entry shows the natural chain unless it says otherwise.
UniProt O60739, whole entry, looked up: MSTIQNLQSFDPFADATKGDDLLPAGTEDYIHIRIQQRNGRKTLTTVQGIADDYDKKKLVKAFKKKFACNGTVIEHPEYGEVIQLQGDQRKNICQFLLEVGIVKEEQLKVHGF
UniProt Q15075: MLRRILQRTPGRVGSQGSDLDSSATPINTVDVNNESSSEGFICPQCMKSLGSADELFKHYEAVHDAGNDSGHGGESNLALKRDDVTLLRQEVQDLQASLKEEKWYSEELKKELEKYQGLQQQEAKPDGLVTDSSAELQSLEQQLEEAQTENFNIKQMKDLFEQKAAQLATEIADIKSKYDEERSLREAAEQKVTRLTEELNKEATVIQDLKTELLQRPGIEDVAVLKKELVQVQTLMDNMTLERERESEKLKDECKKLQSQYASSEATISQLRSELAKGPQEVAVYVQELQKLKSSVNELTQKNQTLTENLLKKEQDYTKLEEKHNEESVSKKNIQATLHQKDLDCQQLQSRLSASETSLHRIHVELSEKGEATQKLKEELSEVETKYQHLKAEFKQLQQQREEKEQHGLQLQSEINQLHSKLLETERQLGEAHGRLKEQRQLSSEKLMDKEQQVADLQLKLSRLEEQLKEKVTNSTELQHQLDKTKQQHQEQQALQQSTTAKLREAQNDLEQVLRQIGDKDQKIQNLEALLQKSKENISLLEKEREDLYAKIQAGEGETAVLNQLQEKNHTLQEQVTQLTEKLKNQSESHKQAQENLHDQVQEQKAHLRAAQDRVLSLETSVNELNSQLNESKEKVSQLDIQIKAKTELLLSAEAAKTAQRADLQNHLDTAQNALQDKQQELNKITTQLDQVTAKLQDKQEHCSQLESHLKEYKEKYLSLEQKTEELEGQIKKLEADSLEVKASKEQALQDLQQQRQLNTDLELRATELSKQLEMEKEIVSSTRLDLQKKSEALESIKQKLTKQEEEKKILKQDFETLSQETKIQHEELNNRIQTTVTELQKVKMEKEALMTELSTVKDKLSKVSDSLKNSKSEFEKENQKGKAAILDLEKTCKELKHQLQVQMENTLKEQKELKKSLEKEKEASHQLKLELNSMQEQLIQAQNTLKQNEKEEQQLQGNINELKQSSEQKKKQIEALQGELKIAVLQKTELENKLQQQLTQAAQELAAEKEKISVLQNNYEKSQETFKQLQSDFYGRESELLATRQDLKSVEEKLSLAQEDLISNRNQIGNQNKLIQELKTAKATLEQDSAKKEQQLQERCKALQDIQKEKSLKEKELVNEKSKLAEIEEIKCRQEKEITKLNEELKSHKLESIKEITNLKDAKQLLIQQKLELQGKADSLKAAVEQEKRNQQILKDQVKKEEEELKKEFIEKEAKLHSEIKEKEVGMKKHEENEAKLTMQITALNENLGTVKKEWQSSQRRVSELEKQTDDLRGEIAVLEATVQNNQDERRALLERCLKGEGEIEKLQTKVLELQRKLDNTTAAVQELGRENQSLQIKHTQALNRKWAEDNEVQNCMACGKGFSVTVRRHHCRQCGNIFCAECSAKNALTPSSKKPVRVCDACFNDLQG
UniProt Q9NX74: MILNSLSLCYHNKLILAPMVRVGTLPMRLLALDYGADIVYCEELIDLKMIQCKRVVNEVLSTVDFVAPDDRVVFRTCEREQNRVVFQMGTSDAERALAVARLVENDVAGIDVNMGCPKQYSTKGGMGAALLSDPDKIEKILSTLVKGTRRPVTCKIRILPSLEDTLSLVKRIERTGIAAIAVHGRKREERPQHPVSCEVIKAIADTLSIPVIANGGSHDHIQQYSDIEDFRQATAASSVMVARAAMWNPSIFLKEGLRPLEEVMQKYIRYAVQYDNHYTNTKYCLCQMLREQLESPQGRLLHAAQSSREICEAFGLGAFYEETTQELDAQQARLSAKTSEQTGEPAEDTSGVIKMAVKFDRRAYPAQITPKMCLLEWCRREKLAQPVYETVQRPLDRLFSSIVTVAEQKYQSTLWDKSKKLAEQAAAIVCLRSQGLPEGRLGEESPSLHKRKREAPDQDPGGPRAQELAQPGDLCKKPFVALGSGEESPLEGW
UniProt Q7RTS9: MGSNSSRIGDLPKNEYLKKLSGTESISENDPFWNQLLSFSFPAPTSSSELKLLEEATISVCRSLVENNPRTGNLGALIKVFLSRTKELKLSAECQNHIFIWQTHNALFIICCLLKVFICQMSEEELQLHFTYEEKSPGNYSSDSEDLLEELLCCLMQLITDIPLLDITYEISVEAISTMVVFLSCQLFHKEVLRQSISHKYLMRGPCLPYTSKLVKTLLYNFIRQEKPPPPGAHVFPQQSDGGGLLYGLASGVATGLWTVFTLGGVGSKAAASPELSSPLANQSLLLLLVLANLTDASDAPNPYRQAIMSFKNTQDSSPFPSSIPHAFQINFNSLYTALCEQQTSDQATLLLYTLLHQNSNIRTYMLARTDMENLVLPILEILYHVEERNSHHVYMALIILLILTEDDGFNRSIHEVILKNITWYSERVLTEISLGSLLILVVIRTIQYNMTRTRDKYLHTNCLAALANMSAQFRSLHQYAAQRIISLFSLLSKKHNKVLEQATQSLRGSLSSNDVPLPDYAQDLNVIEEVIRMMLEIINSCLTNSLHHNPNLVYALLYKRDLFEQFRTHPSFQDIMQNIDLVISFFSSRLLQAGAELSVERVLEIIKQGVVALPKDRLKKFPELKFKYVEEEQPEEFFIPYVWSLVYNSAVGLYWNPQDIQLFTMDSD
UniProt O00716: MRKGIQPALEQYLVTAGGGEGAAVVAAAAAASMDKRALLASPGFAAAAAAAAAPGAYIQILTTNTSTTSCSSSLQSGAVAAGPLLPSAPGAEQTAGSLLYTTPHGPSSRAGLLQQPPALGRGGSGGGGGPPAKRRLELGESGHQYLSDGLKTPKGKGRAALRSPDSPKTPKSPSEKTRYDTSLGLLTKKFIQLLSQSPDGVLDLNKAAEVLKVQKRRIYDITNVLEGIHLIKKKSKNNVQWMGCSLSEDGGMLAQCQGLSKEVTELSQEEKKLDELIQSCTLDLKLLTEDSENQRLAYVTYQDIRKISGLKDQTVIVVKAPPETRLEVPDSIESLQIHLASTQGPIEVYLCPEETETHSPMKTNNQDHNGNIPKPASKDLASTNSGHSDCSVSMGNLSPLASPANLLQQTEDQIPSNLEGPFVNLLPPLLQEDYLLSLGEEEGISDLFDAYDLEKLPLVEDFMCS
UniProt Q9Y295: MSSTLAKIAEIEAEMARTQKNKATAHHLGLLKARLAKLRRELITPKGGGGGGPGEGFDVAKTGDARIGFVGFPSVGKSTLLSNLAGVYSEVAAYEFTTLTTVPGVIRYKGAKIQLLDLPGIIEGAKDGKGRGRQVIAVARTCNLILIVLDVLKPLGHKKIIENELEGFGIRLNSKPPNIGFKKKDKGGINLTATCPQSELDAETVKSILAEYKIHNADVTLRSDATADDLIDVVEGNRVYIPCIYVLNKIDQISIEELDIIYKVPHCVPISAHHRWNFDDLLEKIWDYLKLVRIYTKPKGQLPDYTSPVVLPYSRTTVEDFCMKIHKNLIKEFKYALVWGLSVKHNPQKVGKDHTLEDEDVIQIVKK
UniProt P42892: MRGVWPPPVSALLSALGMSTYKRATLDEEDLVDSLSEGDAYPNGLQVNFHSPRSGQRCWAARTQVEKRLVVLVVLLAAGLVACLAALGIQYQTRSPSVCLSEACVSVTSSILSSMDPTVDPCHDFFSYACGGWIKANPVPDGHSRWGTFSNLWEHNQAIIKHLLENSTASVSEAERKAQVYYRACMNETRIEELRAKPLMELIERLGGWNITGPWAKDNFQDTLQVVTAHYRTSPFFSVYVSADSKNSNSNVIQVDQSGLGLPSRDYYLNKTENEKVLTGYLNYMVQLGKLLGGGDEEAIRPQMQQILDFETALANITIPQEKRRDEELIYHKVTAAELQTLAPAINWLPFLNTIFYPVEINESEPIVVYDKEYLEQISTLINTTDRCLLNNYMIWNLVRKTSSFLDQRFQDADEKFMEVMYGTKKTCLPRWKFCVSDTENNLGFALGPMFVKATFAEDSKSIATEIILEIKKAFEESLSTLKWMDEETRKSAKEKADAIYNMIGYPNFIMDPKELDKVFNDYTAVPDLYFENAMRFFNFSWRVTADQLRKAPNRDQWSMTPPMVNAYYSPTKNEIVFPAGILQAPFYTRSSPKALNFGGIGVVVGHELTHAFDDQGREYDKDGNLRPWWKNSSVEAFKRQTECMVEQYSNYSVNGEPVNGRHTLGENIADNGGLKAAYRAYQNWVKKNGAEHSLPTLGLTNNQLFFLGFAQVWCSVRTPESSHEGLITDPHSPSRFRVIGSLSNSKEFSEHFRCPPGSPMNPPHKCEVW
UniProt Q96G46: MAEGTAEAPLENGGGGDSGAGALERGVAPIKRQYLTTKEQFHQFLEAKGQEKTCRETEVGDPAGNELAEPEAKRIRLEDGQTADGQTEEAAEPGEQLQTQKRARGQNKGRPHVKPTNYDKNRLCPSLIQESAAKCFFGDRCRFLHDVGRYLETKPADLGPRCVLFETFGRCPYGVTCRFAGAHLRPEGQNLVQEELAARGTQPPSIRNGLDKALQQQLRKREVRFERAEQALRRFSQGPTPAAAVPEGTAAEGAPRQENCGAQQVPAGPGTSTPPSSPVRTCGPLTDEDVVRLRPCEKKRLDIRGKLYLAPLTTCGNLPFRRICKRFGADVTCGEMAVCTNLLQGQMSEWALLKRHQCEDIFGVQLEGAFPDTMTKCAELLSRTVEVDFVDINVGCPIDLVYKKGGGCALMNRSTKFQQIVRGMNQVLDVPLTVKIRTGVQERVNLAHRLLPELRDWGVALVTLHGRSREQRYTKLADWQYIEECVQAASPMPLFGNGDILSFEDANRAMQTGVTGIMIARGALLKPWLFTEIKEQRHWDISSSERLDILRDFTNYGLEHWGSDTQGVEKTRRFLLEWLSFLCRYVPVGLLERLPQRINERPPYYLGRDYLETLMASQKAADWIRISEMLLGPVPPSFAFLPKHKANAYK
EEF1AKMT2, A0A494BZY7, UniProt A0A494BZY7, whole entry, looked up: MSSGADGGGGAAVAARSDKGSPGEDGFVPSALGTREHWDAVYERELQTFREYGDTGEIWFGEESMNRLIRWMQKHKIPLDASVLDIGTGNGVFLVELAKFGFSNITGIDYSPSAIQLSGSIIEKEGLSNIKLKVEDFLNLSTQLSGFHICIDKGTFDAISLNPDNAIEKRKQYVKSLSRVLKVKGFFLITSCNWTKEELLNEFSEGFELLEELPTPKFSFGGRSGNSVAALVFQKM
UniProt Q6V1X1: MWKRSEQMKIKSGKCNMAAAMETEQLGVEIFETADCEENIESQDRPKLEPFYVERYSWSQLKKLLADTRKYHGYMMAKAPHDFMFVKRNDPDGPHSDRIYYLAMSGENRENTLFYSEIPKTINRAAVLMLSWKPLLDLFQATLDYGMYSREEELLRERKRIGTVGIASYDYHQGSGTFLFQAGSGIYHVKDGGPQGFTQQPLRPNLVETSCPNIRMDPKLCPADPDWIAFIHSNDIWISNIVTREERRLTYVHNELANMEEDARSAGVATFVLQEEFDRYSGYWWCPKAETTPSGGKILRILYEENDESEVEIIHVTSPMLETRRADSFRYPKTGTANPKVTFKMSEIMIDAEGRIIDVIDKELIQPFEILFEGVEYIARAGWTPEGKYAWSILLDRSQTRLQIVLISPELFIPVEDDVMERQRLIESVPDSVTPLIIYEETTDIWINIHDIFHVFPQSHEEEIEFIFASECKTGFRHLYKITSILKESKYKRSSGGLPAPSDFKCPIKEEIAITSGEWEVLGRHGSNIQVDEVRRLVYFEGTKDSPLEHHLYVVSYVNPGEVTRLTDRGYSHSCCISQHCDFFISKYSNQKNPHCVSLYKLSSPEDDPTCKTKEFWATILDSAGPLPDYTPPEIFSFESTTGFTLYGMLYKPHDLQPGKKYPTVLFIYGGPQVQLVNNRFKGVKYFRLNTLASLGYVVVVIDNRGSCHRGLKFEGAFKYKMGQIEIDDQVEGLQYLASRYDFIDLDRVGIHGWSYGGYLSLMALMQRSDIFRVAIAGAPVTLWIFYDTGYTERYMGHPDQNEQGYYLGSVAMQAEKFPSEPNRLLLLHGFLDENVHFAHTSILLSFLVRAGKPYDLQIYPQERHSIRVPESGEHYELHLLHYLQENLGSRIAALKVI
UniProt Q9Y6G9, whole entry, looked up: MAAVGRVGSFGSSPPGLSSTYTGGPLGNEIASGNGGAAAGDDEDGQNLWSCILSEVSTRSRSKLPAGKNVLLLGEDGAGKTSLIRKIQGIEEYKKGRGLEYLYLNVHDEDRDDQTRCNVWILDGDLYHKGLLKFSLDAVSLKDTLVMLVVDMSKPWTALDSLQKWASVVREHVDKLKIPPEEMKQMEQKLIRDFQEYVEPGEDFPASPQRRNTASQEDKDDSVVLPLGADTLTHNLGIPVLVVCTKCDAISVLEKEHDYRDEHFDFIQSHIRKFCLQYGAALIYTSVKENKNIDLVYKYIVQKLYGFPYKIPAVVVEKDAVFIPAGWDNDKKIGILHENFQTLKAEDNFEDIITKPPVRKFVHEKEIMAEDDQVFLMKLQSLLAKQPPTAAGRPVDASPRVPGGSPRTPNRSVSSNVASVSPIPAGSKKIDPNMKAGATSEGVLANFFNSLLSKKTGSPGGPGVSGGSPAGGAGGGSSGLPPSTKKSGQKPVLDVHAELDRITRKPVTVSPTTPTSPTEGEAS

compound: CC1=C(C=C(C=C1)NC(=O)C2=CC(=CC=C2)N(C)C)NC(=O)C3=CC=C(C=C3)O; experiment: log2 fold change, soluble protein after heating vs DMSO (PISA); higher = thermal stabilisation; K562 lysate, 10 uM; active = over 0.2 and 3.5 SD of the protein, either way, in both replicates (recomputed)
Summary of the method: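 To prepare the extract, K562 pellets were dounce-homogenised in PBS pH 7.4 with 1 mM MgCl2, giving crude material at 1 mg/mL protein. This was treated with 10 μM compound for 30 min, then heated in aliquots for 3 min over 48°C-58°C before pooling and addition of NP-40 to 0.5% at 4°C. Centrifugation at 21,000xg for 90 min left soluble protein in the supernatant, which TMTpro 16plex LC-MS/MS quantified with equalised channel sums. Results are log-two fold changes in thermal stability compared with solvent controls, from duplicates.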

| Target | log2 fold change |
| --- | --- |
| EIF1B (UniProt O60739) | inactive: -0.156 |
| EEA1 (UniProt Q15075) | inactive: -0.001 |
| DUS2 (UniProt Q9NX74) | inactive: 0.091 |
| ECPAS (UniProt Q5VYK3) | inactive: 0.024 |
| DYM (UniProt Q7RTS9) | inactive: -0.08 |
| EI24 (UniProt O14681) | inactive: 0.041 |
| DSG2 (UniProt Q14126) | inactive: -0.02 |
| E2F3 (UniProt O00716) | inactive: 0.013 |
| DRG1 (UniProt Q9Y295) | inactive: -0.018 |
| ECE1 (UniProt P42892) | inactive: 0.014 |
| DUS3L (UniProt Q96G46) | inactive: 0.001 |
| EHMT2 (UniProt A2ABF8) | inactive: -0.012 |
| EEF1AKMT2, A0A494BZY7 | inactive: 0.038 |
| DPP8 (UniProt Q6V1X1) | inactive: 0.022 |
| DYNC1LI1 (UniProt Q9Y6G9) | inactive: 0.027 |
| DPY19L1, A0A1B0GW05 | inactive: 0.065 |

Retrieved one by one from above, 2 records:

| Target | log2 fold change |
| --- | --- |
| DYM (UniProt Q7RTS9) | inactive: -0.08 |
| DUS3L (UniProt Q96G46) | inactive: 0.001 |
